Results from patent publication US20110150888A1.
Results are given in words; binding and its absence hold for the method and conditions named. Some binding calls cover weakened binding; strength is not graded here.

Biological target: T1, cynomolgus monkey hepcidin (cynomolgus monkey) (UniProt A7XEI3)
T1 sequence (peptide): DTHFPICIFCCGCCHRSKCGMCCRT
Experiment: competition ELISA

binding: binds
B1: antibody 18B11 (antibody, V domains shown)
VH: QVQLQQWGAGPLKPSETLSLTCAVYNGSFSGYYWSWIRQPPGKGLEWIGDINHSGNTKYNPSLKSRVTISVDTSKNQFSLKLSSVTAADTAVYYCARGDFWSGFDWFDPWGQGTLVTVSS
VL: QSALTQPASVSGSPGQSITISCTGTSSNVGSYNLVSWYQQHPGKAPKLMISEVSKRPSGLSNRFSGSKSGNTASLTISGLQAEDEADYYCCSYAGSSTLIFGGGTKLTVL
